Measurements reported in US20110098339A1.
These are yes or no findings as the source states them, for the method shown. In cells and extracts the contact can be indirect. Here binding means that the protein was enriched with, or labelled near, the bait; the list need not be complete. Sequences can lack the tags named with a protein.

Tests used:
[1] = target: T1, ANT2 protein (endogenous, PK-1 cells) (human) (UniProt P05141); test: anti-HA immunoprecipitation from lysate of cells over-expressing C2orf18-HA, mass spectrometry of co-precipitated bands
T1 sequence: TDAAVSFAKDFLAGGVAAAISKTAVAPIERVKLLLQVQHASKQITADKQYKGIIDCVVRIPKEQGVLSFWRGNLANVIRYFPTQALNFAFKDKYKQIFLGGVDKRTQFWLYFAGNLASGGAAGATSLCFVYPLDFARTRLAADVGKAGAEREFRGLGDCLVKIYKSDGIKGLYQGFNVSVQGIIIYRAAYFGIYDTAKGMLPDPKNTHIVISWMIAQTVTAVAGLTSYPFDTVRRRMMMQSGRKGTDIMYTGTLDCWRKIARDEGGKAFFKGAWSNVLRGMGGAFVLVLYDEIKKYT

[2] = target: T1, ANT2 protein (endogenous, PK-1 cells) (human); test: immunoprecipitation followed by mass spectrometry (FIG. 3C legend)

binding [1]: binds
binding [2]: binds
B1: C2orf18-HA (protein, not shown: small tags and cut ends)
chain: SINTLSAKWADNFMAEGCGGSKEHSFQHPFLQAVGMFLGEFSCLAAFYLLRCRAAGQSDSSVDPQQPFNPLLFLPPALCDMTGTSLMYVALNMTSASSFQMLRGAVIIFTGLFSVAFLGRRLVLSQWLGILATIAGLVVVGLADLLSKHDSQHKLSEVITGDLLIIMAQIIVAIQMVLEEKFVYKHNVHPLRAVGTEGLFGFVILSLLLVPMYYIPAGSFSGNPRGTLEDALDAFCQVGQQPLIAVALLGNISSIAFFNFAGISVTKELSATTRMVLDSLRTVVIWALSLALGWEAFHALQILGFLILLIGTALYNGLHRPLLGRLSRGRPLAEESEQERLLGGTRTPINDAS
